Several values for one entry are separate records, joined by “and”; a condition that tells them apart may be missing. Equal values may be shown once. In all, about 400,000 compounds went through this assay and about 13,000 (3.2%) were called active. This list was built around the results that the source calls inconclusive (neither active nor inactive); the mix of calls is not that of the screen. The call rests on the fitted dose curve; in most records, active means well fitted cell-killing curve with a large enough effect; inconclusive means small, poorly fitted or top-dose-only effect, or effect the other way; inactive means flat fitted curve, though single readings scatter. Potencies beside an inconclusive call are fits to weak or partial responses and may not hold up.
test: qHTS assay for MDR1-selective chemotherapeutics: Primary screen using the drug-selected MDR subline cells KB-V1; settings: KB-V1 MDR cells viability, CellTiter-Glo, 72 h; activity change, negative = cytotoxicity: at 46.1 µM (top of the series); further: nearly all actives have a fitted effect of over 60% in size
Outline: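 Following 72 h at 37 degrees C with compound, KB-V1 cell viability was read by CellTiter-Glo luminescence, medium being phenol-red-free DMEM plus 10% FBS; concentration-response parameters came from normalized, curve-fitted qHTS data.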
On the % scale 0 is the no-effect control and ±100 the full control effect; potency means the concentration at half of the fitted maximal effect.

Row | Structure (SMILES) | Potency | activity change, negative = cytotoxicity
1 | CN(C)CCNC(=O)c1cccc2nc3cccc(F)c3nc12 | inconclusive: 0.58 µM [cytotoxic, partial curve, poor fit] | 
2 | Cc1ccc2oc(-c3ccc(NC(=O)COc4ccccc4)cc3O)nc2c1 |  | inactive: 0%
3 | Cc1ccc(Cl)cc1N1CCN(C(=O)c2ccc3c(c2)N(Cc2ccc(F)cc2)CCS3)CC1 | inconclusive: 18.4 µM [cytotoxic, single point] | 
4 | Cc1c(Br)ccc(NC(=O)COc2ccccc2C(N)=O)c1C | inconclusive: 25.9 µM [cytotoxic, single point] | 
5 | CCOc1ccccc1OCCCn1c(-c2ccc(Cl)cc2)nc2ccccc2c1=O |  | inactive: 0.218%
6 | CCOc1cc(CN2CCc3c([nH]c4ccccc34)C2)ccc1OC | inconclusive: 10.3 µM [cytotoxic, partial curve, poor fit] | 
7 | Cc1noc(C)c1C(=O)Nc1ccc2ccccc2c1 | inconclusive: 16.4 µM [rising, single point] | 
8 | COc1ccc(-c2noc(-c3ccccc3C(=O)NCc3ccco3)n2)cc1 | inconclusive: 18.4 µM [cytotoxic, single point] | 
9 | COc1cccc(CC(=O)NNC(=O)CN(C)S(=O)(=O)c2ccc(C)cc2)c1 |  | inactive: -1.38%
10 | COc1ccc(CN(C(=O)CSc2nnc(-c3ccc(OC)c(OC)c3)o2)c2ccc(F)cc2)cc1 | inconclusive: 23.1 µM [cytotoxic, partial curve] | 
11 | COc1cc2nc(NC(=O)c3ccc(S(=O)(=O)N4CCOCC4)cc3)sc2cc1OC | inconclusive: 29.1 µM [rising, single point] | 
12 | CCCS(=O)(=O)N1CC(=O)N(c2ccc(Cl)cc2C)C(C)(C(=O)NC2CCCC2)C1 (configuration not stated) |  | inactive: 1.63%
13 | CCOC(=O)CC1C(=O)NCCN1Cc1cccc(OC)c1 (configuration not stated) | inconclusive: 0.0058 µM [rising, full curve, poor fit] | 
14 | CN(C)c1ccc(/C=N/NC(=O)c2ccc3nc[nH]c3c2)cc1 |  | inactive: 5.73%
15 | CCOC(=O)/C=C1\SCC(=O)N1CC(=O)NCc1ccc(OC)c(OC)c1 |  | inactive: 8.35%
16 | C=CCn1c(SCC(=O)NCCCC(=O)OCC)nc2scc(-c3ccco3)c2c1=O | inconclusive: 10.3 µM [cytotoxic, partial curve] | 
17 | CCOc1ccccc1NC(=O)c1cc(S(=O)(=O)N2CCN(CC)CC2)ccc1Cl | inconclusive: 5.8 µM [cytotoxic, full curve] | 
18 | CCOC(=O)c1cccc(NC(=O)CCn2c(-c3ccc(F)cc3)cc(C(=O)OCC)c2C)c1 | inconclusive: 16.4 µM [cytotoxic, single point] | 
19 | CC(=O)c1cccc(NC(=O)C2CCN(S(=O)(=O)c3ccc4c(c3)oc(=O)n4C)CC2)c1 | inconclusive: 29.1 µM [rising, single point] | 
20 | CCOC(=O)C1(CCOc2ccccc2)CCN(C(=O)c2ccc(-n3cccn3)cc2)CC1 | inconclusive: 2.59 µM [cytotoxic, partial curve] | 
21 | COc1ccc(-c2oc3c(c2C(=O)OCCO)C(OCCCO)CCC3)cc1 (configuration not stated) | inconclusive: 20.6 µM [cytotoxic, partial curve] | 
22 | O=C(CC(Nc1ccc(Cl)cc1)C(=O)O)c1ccccc1 (configuration not stated) | inconclusive: 9.2 µM [rising, partial curve] | 
23 | CCOC(=O)CSCC(=O)N1CCC(Cc2ccccc2)CC1 | inconclusive: 0.231 µM [rising, full curve] | 

4 entries from above, as comma-separated lines.
Row,Structure (SMILES),Potency,"activity change, negative = cytotoxicity"
10,COc1ccc(CN(C(=O)CSc2nnc(-c3ccc(OC)c(OC)c3)o2)c2ccc(F)cc2)cc1,"inconclusive: 23.1 µM [cytotoxic, partial curve]",
11,COc1cc2nc(NC(=O)c3ccc(S(=O)(=O)N4CCOCC4)cc3)sc2cc1OC,"inconclusive: 29.1 µM [rising, single point]",
12,CCCS(=O)(=O)N1CC(=O)N(c2ccc(Cl)cc2C)C(C)(C(=O)NC2CCCC2)C1 (configuration not stated),,inactive: 1.63%
13,CCOC(=O)CC1C(=O)NCCN1Cc1cccc(OC)c1 (configuration not stated),"inconclusive: 0.0058 µM [rising, full curve, poor fit]",

More records:

Row | Structure (SMILES) | Potency | activity change, negative = cytotoxicity
24 | O=C(NN1C(=O)C2C3C=CC(C4CC34)C2C1=O)c1ccc(Cl)cc1 (configuration not stated) | inconclusive: 23.1 µM [cytotoxic, partial curve, poor fit] | 
25 | O=C1C2CCCN2C(c2ccccc2)N1c1cccc(Cl)c1 (configuration not stated) | inconclusive: 11.6 µM [rising, partial curve] | 
26 | COc1cccc(/C=N/NC(=O)Cn2nc(C)c([N+](=O)[O-])c2C)c1O | inconclusive: 18.4 µM [cytotoxic, single point] | 
27 | C/C(=C1/SC(N2CC(C)OC(C)C2)=NC1=O)c1ccccc1 (configuration not stated) | inconclusive: 14.6 µM [cytotoxic, single point] | 
28 | CCCOC(=O)c1c(NC(=O)CCC(=O)O)sc2c1CCCCC2 | inconclusive: 32.6 µM [rising, single point] | 
29 | COc1ccc2cc3c(N)c(C(=O)N4CCCC4)sc3nc2c1 | inconclusive: 20.6 µM [cytotoxic, partial curve] | 
30 | CC(OC(=O)CCC(=O)c1ccc(Cl)s1)C(=O)NC1(C#N)CCCCC1 (configuration not stated) |  | inactive: -20.5%
31 | CCOC(=O)c1[nH]c(C)c(C(=O)OC(C)C(=O)Nc2ncc(Cl)cc2Cl)c1C (configuration not stated) | active: 12.6 µM | 
32 | C=CCn1cc(C(=O)N2CCN(c3ccccc3)CC2)c(=O)c2cc(S(=O)(=O)N3CCCC3)ccc21 | inconclusive: 6.51 µM [rising, partial curve] | 
33 | O=C(NCc1ccc(F)cc1)c1ccc(S(=O)(=O)N2CCCCC2)cc1 | inconclusive: 20.6 µM [cytotoxic, single point] | 
34 | O=S(=O)(c1ccc2c(c1)OCCO2)N1CCC(c2nc3ccccc3s2)CC1 |  | inactive: -7.64%
35 | Cc1cs/c(=N\N=C\c2cccc([N+](=O)[O-])c2)n1Cc1ccco1 | inconclusive: 6.51 µM [cytotoxic, full curve, poor fit] | 
36 | COc1ccc(C)cc1NS(=O)(=O)c1ccc2c(c1)CCCN2C(C)=O |  | inactive: -16.6%
37 | COc1ccc(CCNC(=O)CSc2ccccn2)cc1 | inconclusive: 6.51 µM [rising, full curve] | 
38 | Cn1c(=O)c2c(nc(Sc3ncccn3)n2Cc2ccc(Cl)cc2)n(C)c1=O |  | inactive: 5.6%
39 | Cc1nc(N2CCN(c3ccccn3)CC2)c2c(C)c(C(=O)Nc3ccc(Br)cc3C)sc2n1 |  | inactive: 11.9%
40 | CC(C)(C)S(=O)(=O)/C(C#N)=N/Nc1ccc(Cl)cc1 | inconclusive: 7.31 µM [cytotoxic, partial curve] | 
41 | O=C(Nc1ccccc1C(=O)NCc1ccco1)c1ccco1 | inconclusive: 18.4 µM [cytotoxic, partial curve] | 
42 | C=CCn1c(-c2ccc(Cl)cc2)c[nH]c1=S | active: 23.1 µM | 
43 | O=C1C=C(Nc2ccc(Cl)cc2)CC(c2ccc(Cl)cc2)C1 (configuration not stated) | active: 23.1 µM | 
44 | Cc1cccc(C(=O)N2CCC(C)(C(=O)NS(=O)(=O)C3CC3)C2)c1C (configuration not stated) |  | inactive: 5.43%
45 | Nc1nc(CSC(=S)N2CCOCC2)nc(Nc2ccccc2)n1 | inconclusive: 18.4 µM [cytotoxic, single point] | 
46 | COc1ccccc1CNCc1cc(=O)oc2c(C)c(C)ccc12 | inconclusive: 20.6 µM [cytotoxic, partial curve, poor fit] | 

Row | Structure (SMILES) | Potency | activity change, negative = cytotoxicity
47 | O=C(CN1CCC(n2nnc3cc(F)ccc32)CC1)Nc1ccccc1N1CCOCC1 | inconclusive: 20.6 µM [cytotoxic, partial curve, poor fit] | 
48 | CCOC(=O)c1sc2nc(C)nc(SC(C)C(=O)N(C)c3ccccc3)c2c1C (configuration not stated) | inconclusive: 23.1 µM [cytotoxic, partial curve, poor fit] | 
49 | Cc1cc(C)n(C(=O)CN2C(=O)COc3ccccc32)n1 | inconclusive: 0.231 µM [rising, full curve, poor fit] | 
50 | O=C1CCC[C@@H]2Cc3nc4cc5c(cc4cc3[C@@H]3CCN1[C@H]23)OCO5 | inconclusive: 20.6 µM [cytotoxic, single point] and active: 18.4 µM | 
51 | COc1ccc(NC(=O)c2cc(-c3cc(F)ccc3OC)n[nH]2)cc1OC |  | inactive: 2.05%
52 | CC1=CCC(C(=O)N/N=C/c2cccs2)C(c2ccc(F)cc2)C1 (configuration not stated) | inconclusive: 8.2 µM [cytotoxic, partial curve, poor fit] | 
53 | CCOC(=O)c1ccc(N2C(=O)CC(Sc3nnc(C)s3)C2=O)cc1 (configuration not stated) | inconclusive: 20.6 µM [rising, single point] | 
54 | O=C(NC1CCCCC1)c1cccc(NC(=O)c2ccccc2Cl)c1 | inconclusive: 8.2 µM [cytotoxic, partial curve] | 
55 | COC(=O)[C@H]1C[C@@]2(O)CN(S(=O)(=O)c3ccc(C)cc3)C[C@@]2(OC(=O)NCc2ccccc2)C[C@H]1C(=O)OC |  | inconclusive: 74.5%
56 | CN(C)c1ccc(-c2nnc(-c3cccnc3)o2)cc1 | inconclusive: 9.2 µM [cytotoxic, partial curve] | 
57 | C=CCn1c(=O)c2c3c(sc2n2c(Nc4ccc(OC)cc4)nnc12)CCCC3 | inconclusive: 29.1 µM [cytotoxic, single point] | 
58 | CC(=O)C1CCC2C3CCC4CC(=O)CCC4(C)C3C(O)CC12C (configuration not stated) | inconclusive: 14.6 µM [cytotoxic, partial curve] | 
59 | CCOc1ccc(NC(=O)CSc2nc3[nH]ncc3c(=O)[nH]2)cc1 | inconclusive: 16.4 µM [rising, single point] | 
60 | O=C(CSc1ncccc1C(=O)O)NC1CCCCCCC1 | inconclusive: 29.1 µM [rising, single point] | 
61 | O=C(NCc1ccco1)c1cccc(S(=O)(=O)N2CCN(Cc3ccccc3)CC2)c1 |  | inactive: 0.893%
62 | Cc1ccc2nc(N/N=C\c3ccc([N+](=O)[O-])o3)nc(-c3ccccc3)c2c1 | active: 18.4 µM | 
63 | O=S(=O)(c1ccc(-c2nc3ccccc3s2)cc1)N1CCCC1 | inconclusive: 1.64 µM [cytotoxic, full curve, poor fit] | 
64 | OC[C@H]1O[C@@H](c2nc(-c3ccc4[nH]ccc4c3)no2)[C@H](O)[C@@H](O)[C@H]1O |  | inactive: 4.59%
65 | CCOc1ccccc1N(CC(=O)Nc1ccccc1F)S(=O)(=O)c1ccccc1 | inconclusive: 29.1 µM [cytotoxic, single point] | 
66 | Cc1cccc(-c2noc(CCCC(=O)N3CCOCC3)n2)c1 | active: 20.6 µM | 
67 | COc1ccc(-c2csc(Nc3cccc(C)n3)n2)cc1 | inconclusive: 18.4 µM [cytotoxic, single point] | 
